PubChem BioAssay AID504793 – Drosophila RNAi Screening Center – 2011
Purpose: 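Whole-genome screen for parts of the DNA damage checkpoint at G2/M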 (primary screen). Cell system: Drosophila S2R+ cells. Reagent: long dsRNA against Drosophila genes, about 0.25 µg dsRNA per well. Duration: 4 days of dsRNA, then 4 hours of drug before read-out. Challenge: doxorubicin 0.5 µM for 4 hours to cause double-strand breaks, in cells also given a low, harmless dose of dsRNA against nbs to sensitise the assay. Measurement: 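Per-well count of mitotic cells stained for phospho-histone H3 after doxorubicin exposure, used as mitotic index; counts are raw and not normalised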. Scale: mitotic cells: higher = more cells in mitosis, weaker G2 arrest. Call rule: 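a call needs confirmation in secondary tests, with other dsRNAs and a check of mitotic timing without damage, not just a high primary count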. Calls: active = confirmed in follow-up tests; inactive = not confirmed.
In all, the deposit lists about 23,000 reagents; this is a random part of those that have a named target and a result. Over the whole deposit, 62 (0.27%) are marked active. 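Calls come from follow-up tests whose scores are not deposited, so confirmed genes may have low counts here; counts are not normalised per plate.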 Raw values vary from plate to plate and are shown uncorrected. Reagents against one gene are numbered here. A plus sign joins genes that one reagent is predicted to hit. No sequences are given here.

no.	target gene	reagent no.	mitotic cells, replicate 1	activity call
1	Ziz (Zizimin)	1	4	inactive
2	Ziz (Zizimin)	2	6	inactive
3	CG7191	1	4	inactive
4	CG7191	2	5	inactive
5	CG31809	1	7	inactive
6	CG11590	1	9	inactive
7	CG11590	2	7	inactive
8	UGP (UDP-glucose pyrophosphorylase)	1	13	inactive
9	CG33306	1	6	inactive
10	CG33306	2	6	inactive
11	Sec6 (Secretory 6)	1	5	inactive
12	CG2701	1	7	inactive
13	Cpr47Ec (Cuticular protein 47Ec)	1	10	inactive
14	Phax (Phosphorylated adaptor for RNA export)	1	8	inactive
15	CG14342	1	4	inactive
16	CG14342	2	7	inactive
17	dbf (doublefault)	1	3	inactive
18	dbf (doublefault)	2	6	inactive
19	CG8833	1	7	inactive
20	Gld (Glucose dehydrogenase)	1	3	inactive
21	CG32022	1	7	inactive
22	janA (janus A)	1	8	inactive
23	janA (janus A)	2	6	inactive
24	otp (orthopedia)	1	7	inactive
25	otp (orthopedia)	2	8	inactive
26	otp (orthopedia)	3	6	inactive
27	CG14420	1	14	inactive
28	CG14420	2	4	inactive
29	Crys (Crystallin)	1	8	inactive
30	Crys (Crystallin)	2	5	inactive
31	CG7966	1	7	inactive
32	scpr-B (SCP-containing protein B)	1	6	inactive
33	Fst (Frost)	1	3	inactive
34	Fst (Frost)	2	4	inactive
35	CG12848	1	3	inactive
36	ara (araucan)	1	8	inactive
37	ara (araucan)	2	6	inactive
38	Amy-p (Amylase proximal)	1	6	inactive
39	kug (kugelei)	1	4	inactive
40	Cpr49Ah (Cuticular protein 49Ah)	1	11	inactive
41	Cpr49Ah (Cuticular protein 49Ah)	2	4	inactive
42	EbpII (Ejaculatory bulb protein II)	1	11	inactive
43	EbpII (Ejaculatory bulb protein II)	2	13	inactive
44	EbpII (Ejaculatory bulb protein II)	3	2	inactive
45	CG9853	1	6	inactive
46	CG9853	2	10	inactive
47	CG9853	3	7	inactive
48	CG13063	1		inactive
49	CG13063	2	7	inactive
50	Asator	1	8	inactive
51	CG10237	1	14	inactive
52	Dhc16F (Dynein heavy chain at 16F)	1	11	inactive
53	CG17598	1	3	inactive
54	fat-spondin	1	2	inactive
55	Cpr64Ac (Cuticular protein 64Ac)	1	8	inactive
56	Cpr64Ac (Cuticular protein 64Ac)	2	5	inactive
57	CG42450	1	7	inactive
58	CG42450	2	6	inactive
59	CG8501	1	6	inactive
60	CG15772	1	12	inactive
61	CG4661	1	11	inactive
62	CG6277	1	18	inactive
63	CG6277	2	4	inactive
64	Tob (Transducer of ERBB2)	1	9	inactive
65	SRPK (SR Protein Kinase)	1	5	inactive
66	SRPK (SR Protein Kinase)	2	6	inactive
67	CG15279	1	9	inactive
68	CG15279	2	9	inactive
69	prd (paired)	1	9	inactive
70	Efhc1.1 (EF-hand domain containing 1.1)	1	15	inactive
71	btd (buttonhead)	1	10	inactive
72	btd (buttonhead)	2	3	inactive
73	CR40441 (pseudo)	1	15	inactive
74	Syx18 (Syntaxin 18)	1	13	inactive
75	CG12204	1	4	inactive
76	CG12204	2		inactive
77	CG11608	1	7	inactive
78	CG7448 (retired record)	1	2	inactive
79	CG7448 (retired record)	2	12	inactive
80	Rab11	1	8	inactive
81	Rab11	2	9	inactive
82	CG4783	1	8	inactive
83	CG7142	1	11	inactive
84	CG7142	2	7	inactive
85	Tgs1 + moi	1	4	inactive
86	noi (noisette)	1	5	inactive
87	noi (noisette)	2	3	inactive
88	Tb (Tubby)	1	8	inactive
89	Tb (Tubby)	2	10	inactive
90	nolo (no long nerve cord)	1	8	inactive
91	nolo (no long nerve cord)	2	3	inactive
92	nolo (no long nerve cord)	3	14	inactive
93	RPA2 (Replication protein A2)	1	18	inactive
94	RPA2 (Replication protein A2)	2	12	inactive
95	CG32036	1	11	inactive
96	CG32036	2	6	inactive
97	Gfrl (Glial cell line-derived neurotrophic family receptor-like)	1	7	inactive
98	Gfrl (Glial cell line-derived neurotrophic family receptor-like)	2	8	inactive
99	Gfrl (Glial cell line-derived neurotrophic family receptor-like)	3	13	inactive
100	Gfrl (Glial cell line-derived neurotrophic family receptor-like)	4	7	inactive
101	Gfrl (Glial cell line-derived neurotrophic family receptor-like)	5	4	inactive
102	Gfrl (Glial cell line-derived neurotrophic family receptor-like)	6	9	inactive
103	Gfrl (Glial cell line-derived neurotrophic family receptor-like)	7	11	inactive
104	Gfrl (Glial cell line-derived neurotrophic family receptor-like)	8	4	inactive
105	CG2233	1	5	inactive
106	CG11970	1	3	inactive
107	ms(3)76Cc (male sterile (3) 76Cc)	1	8	inactive
108	ms(3)76Cc (male sterile (3) 76Cc)	2	8	inactive
109	CG14968	1	4	inactive
110	CG14968	2	7	inactive
111	Ir51a (Ionotropic receptor 51a)	1	8	inactive
112	mtTFB1 + Ccdc56	1	16	inactive
113	mat (materazzi)	1	6	inactive
114	mat (materazzi)	2	20	inactive
115	mat (materazzi)	3	7	inactive
116	TkR86C (Tachykinin-like receptor at 86C)	1	3	inactive
117	CG14795	1	9	inactive
118	CG14795	2	6	inactive
119	CG9760	1	1	inactive
120	CG9760	2	4	inactive
121	CG5188	1	5	inactive
122	CG31804	1	7	inactive
123	CG33268	1	3	inactive
124	CG7011 + Prp31	1	10	inactive
125	f-cup (flyers-cup)	1	6	inactive
126	f-cup (flyers-cup)	2	4	inactive
127	CG12605	1	6	inactive
128	CG12605	2	8	inactive
129	CG30325	1	7	inactive
130	CG14868	1	3	inactive
131	CG14868	2	5	inactive
132	Or33a (Odorant receptor 33a)	1	8	inactive
133	Kif19A (Kinesin family member 19A)	1	7	inactive
134	Kif19A (Kinesin family member 19A)	2	9	inactive
135	Elo68alpha (Elongase 68alpha)	1	10	inactive
136	Ugt36E1 (UDP-glycosyltransferase family 36 member E1)	1	8	inactive
137	CG12025	1	7	inactive
138	Psa (Puromycin sensitive aminopeptidase)	1	7	inactive
139	CG11899	1	6	inactive
140	Hsp60D (Heat shock protein 60D)	1	8	inactive
141	Hsp60D (Heat shock protein 60D)	2	8	inactive

Sorted by “mitotic cells, replicate 1” (low to high): some entries from above.
target gene	reagent no.	mitotic cells, replicate 1	activity call
CG9760	1	1	inactive
CG11970	1	3	inactive
TkR86C (Tachykinin-like receptor at 86C)	1	3	inactive
Gfrl (Glial cell line-derived neurotrophic family receptor-like)	8	4	inactive
CG14968	1	4	inactive
CG9760	2	4	inactive
CG2233	1	5	inactive
CG5188	1	5	inactive
mat (materazzi)	1	6	inactive
CG14795	2	6	inactive
CG14968	2	7	inactive
mat (materazzi)	3	7	inactive
CG31804	1	7	inactive
ms(3)76Cc (male sterile (3) 76Cc)	1	8	inactive
ms(3)76Cc (male sterile (3) 76Cc)	2	8	inactive
Ir51a (Ionotropic receptor 51a)	1	8	inactive
Gfrl (Glial cell line-derived neurotrophic family receptor-like)	6	9	inactive
CG14795	1	9	inactive
Gfrl (Glial cell line-derived neurotrophic family receptor-like)	7	11	inactive
mtTFB1 + Ccdc56	1	16	inactive
mat (materazzi)	2	20	inactive
